Melting point and TD50 data for one molecule are collected here from patent US20120264827A1, “SULFANYLAMIDE DERIVATIVES, USES THEREOF AND COMPOSITIONS COMPRISING THEM” (YISSUM RESEARCH DEVELOPMENT COMPANY OF THE HEBREW …, priority 2009, published 2012).

Structures are written as SMILES.

A short description of one data set: in vivo. As to conditions: male, Sprague-Dawley, rat, po.

In the case of `CCC(CC(C)C)C(=O)Nc1ccc(S(N)(=O)=O)cc1` (centres unmarked) [Compound 23, 2-Ethyl-4-methyl-N-(4-sulfamoyl-phenyl)-pentanamide], the melting point lay within 199 to 200 °C. The TD50 in “in vivo” is greater than 500 mg/kg.

Usually melting point stands for the temperature, or range, at which the solid turns liquid.
